# pKd: −log10 of the molar value. At least one structure is not confirmed: it was looked up by name or label, or the drawing left a doubt. Positions of bridges follow the written chain, without caps; N, C: chain ends. Non-standard residues stand in square brackets, D forms with d. Residues, ends and D or L forms follow the SMILES beside them. *: point of attachment. X3 = C/C(CCC(=O)N[C@@H](CCCCNC(=O)CC/C(C)=N/OCCO[C@H]1O[C@H](CCP(=O)(O)O)[C@@H](O)[C@H](O)[C@@H]1O)C(=O)*)=N/OCCO[C@H]1O[C@H](CCP(=O)(O)O)[C@@H](O)[C@H](O)[C@@H]1O; X5 = CC(=O)CCC(=O)N[C@@H](CCCCNC(=O)CC/C(C)=N/OCCO[C@H]1O[C@H](CCP(=O)(O)O)[C@@H](O)[C@H](O)[C@@H]1O)C(=O)*; Bip = N[C@@H](Cc1ccc(-c2ccccc2)cc1)C(=O)O; NMeA = CN[C@@H](C)C(=O)O
# Sequences of proteins named here, by UniProt entry; tags and fusion partners are left off. Residues count along the entry.
# UniProt Q8NBP7, 153-692: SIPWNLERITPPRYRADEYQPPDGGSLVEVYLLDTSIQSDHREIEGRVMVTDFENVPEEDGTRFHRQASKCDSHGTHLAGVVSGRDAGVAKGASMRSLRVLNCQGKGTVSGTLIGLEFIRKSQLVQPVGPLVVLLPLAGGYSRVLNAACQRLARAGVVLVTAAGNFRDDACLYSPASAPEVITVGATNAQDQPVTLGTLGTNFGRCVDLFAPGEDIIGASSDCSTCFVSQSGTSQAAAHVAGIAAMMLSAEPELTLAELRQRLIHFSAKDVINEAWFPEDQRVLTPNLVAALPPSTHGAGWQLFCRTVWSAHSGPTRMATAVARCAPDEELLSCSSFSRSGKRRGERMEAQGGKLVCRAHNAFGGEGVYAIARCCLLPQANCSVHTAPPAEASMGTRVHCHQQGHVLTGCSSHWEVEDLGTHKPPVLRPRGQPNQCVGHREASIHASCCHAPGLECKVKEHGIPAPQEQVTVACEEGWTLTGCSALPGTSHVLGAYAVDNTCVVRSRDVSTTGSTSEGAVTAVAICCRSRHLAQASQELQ
# UniProt P11717, whole entry: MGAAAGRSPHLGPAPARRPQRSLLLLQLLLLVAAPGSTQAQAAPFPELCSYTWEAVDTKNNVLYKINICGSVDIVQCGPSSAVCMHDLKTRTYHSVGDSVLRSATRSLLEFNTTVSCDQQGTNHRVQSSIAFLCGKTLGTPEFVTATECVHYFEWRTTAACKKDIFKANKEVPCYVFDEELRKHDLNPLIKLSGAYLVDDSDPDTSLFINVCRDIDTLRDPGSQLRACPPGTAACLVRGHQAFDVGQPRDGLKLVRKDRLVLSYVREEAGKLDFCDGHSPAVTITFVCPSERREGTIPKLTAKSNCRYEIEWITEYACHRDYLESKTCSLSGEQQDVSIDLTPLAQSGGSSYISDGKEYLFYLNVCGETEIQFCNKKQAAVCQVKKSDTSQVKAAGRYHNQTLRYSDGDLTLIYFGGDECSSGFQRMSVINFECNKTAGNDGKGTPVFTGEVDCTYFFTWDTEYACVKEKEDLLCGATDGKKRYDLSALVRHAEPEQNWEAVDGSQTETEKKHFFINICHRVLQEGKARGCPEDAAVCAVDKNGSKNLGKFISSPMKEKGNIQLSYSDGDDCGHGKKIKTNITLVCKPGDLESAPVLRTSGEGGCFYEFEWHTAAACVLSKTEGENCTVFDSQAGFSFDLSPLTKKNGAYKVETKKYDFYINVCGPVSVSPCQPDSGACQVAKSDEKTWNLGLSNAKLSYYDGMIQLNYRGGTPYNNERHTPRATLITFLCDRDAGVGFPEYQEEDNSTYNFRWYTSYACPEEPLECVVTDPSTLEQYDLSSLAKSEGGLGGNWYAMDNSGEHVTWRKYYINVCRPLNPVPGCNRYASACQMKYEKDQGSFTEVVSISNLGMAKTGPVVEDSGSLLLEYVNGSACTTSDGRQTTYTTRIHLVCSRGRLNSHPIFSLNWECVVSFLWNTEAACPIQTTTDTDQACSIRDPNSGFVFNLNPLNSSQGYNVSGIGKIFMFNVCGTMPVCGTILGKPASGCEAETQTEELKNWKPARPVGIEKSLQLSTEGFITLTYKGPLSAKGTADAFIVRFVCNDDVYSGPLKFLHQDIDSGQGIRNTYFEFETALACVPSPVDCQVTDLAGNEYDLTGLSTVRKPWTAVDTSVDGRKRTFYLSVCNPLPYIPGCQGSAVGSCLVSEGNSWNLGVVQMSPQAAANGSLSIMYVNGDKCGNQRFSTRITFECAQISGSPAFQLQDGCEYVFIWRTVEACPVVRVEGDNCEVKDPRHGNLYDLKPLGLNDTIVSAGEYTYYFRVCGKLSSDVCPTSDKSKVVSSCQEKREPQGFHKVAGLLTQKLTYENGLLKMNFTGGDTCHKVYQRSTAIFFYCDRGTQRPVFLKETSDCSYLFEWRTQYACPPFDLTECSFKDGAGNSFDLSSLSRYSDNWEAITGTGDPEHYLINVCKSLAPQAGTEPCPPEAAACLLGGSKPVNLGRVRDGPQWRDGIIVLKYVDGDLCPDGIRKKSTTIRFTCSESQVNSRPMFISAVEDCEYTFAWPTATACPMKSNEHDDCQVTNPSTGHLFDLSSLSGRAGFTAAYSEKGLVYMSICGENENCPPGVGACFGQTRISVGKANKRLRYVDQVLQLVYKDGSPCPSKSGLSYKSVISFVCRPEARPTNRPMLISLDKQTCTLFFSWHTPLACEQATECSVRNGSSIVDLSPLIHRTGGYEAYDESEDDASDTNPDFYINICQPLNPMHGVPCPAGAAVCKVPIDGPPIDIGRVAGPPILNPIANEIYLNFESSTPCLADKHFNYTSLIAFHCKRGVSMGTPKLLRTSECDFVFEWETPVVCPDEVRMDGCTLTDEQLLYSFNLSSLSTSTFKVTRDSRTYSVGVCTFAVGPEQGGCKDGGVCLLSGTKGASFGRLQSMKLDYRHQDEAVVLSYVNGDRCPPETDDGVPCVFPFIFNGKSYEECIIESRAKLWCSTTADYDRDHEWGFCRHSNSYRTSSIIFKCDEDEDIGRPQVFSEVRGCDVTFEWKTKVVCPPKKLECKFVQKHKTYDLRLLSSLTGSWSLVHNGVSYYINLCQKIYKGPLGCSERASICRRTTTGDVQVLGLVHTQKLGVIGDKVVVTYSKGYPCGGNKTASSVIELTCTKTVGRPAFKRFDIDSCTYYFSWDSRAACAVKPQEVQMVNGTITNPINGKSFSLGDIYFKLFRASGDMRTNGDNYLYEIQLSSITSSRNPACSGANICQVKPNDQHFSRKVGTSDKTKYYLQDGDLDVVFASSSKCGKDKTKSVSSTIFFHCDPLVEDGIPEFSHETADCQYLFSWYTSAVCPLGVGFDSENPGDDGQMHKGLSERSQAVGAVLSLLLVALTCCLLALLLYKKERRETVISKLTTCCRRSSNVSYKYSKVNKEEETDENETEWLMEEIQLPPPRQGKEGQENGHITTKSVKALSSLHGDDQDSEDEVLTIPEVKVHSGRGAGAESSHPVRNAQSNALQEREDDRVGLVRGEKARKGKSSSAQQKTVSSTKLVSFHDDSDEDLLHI
# Columns and labels:
# human PCSK9 = biological target: T1, human PCSK9 (Homo sapiens, UniProt Q8NBP7); test: SPR binding to biotinylated human PCSK9 (Proteon XPR36); conditions: Bifunctional Compound
# T1 construct: Purified recombinant full length human PCSK9 with C-terminal biotinylated Avitag
# Method: SPR was used to obtain the binding data for PCSK9 receptor ligand compound (C5), either alone or as part of the bifunctional compounds (BFC1), respectively.
# SPR Binding experiments were performed on a Proteon XPR36 instrument (Bio-Rad Laboratories). Purified recombinant full length human PCSK9 with C-terminal biotinylated Avitag was used for the assay. Biotinylated human PCSK9 was incubated with fivefold molar excess of bifunctional compound (BFC1) or compound (C5), and immobilized onto a Neutravidin coated sensor chip. (NLC chip, Bio-Rad Laboratories, Inc). […]
# To perform sandwich SPR binding assays, His-ASGPR1 (62-291) protein stocks were diluted with running buffer to a desired concentration. […] Sensorgrams were recorded for association and dissociation phases. All sensorgrams were processed by subtracting the binding response recorded from a blank control surfaces (or interspot surfaces), followed by subtracting buffer blank injections from the reaction surface. […]
# M6PR = M6PR (Homo sapiens, UniProt P11717); test: SPR binding to M6P receptor; conditions: Bifunctional Compound
# Text: SPR was used to obtain the binding data for M6P receptor ligands compounds (int-CC6), either alone or as part of the bifunctional compound (BFC-2).
Compound,pKd (human PCSK9),pKd (M6PR)
CC(=O)CCC(=O)N[C@@H](CCCCNC(=O)CC/C(C)=N/OCCO[C@H]1O[C@H](CCP(=O)(O)O)[C@@H](O)[C@H](O)[C@@H]1O)C(=O)NCCCC[C@H](NC(=O)CNC(=O)[C@@H]1CSCC(=O)N[C@@H](Cc2ccccc2)C(=O)N[C@@H](C(C)C)C(=O)N2CCC[C@H]2C(=O)N[C@@H]([C@@H](C)O)C(=O)N[C@@H]([C@@H](C)O)C(=O)N[C@@H](Cc2ccc(-c3ccccc3)cc2)C(=O)N(C)[C@@H](C)C(=O)N[C@@H](Cc2ccc(-c3ccccc3)cc2)C(=O)N(C)[C@@H](C)C(=O)N[C@@H](CCC(=O)O)C(=O)N[C@@H](C)C(=O)N2CCC[C@H]2C(=O)N1)C(N)=O [BFC-8] ({CH2CO}-FVPTT[Bip][NMeA][Bip][NMeA]EAPCGK(X5)-NH2; thioether N-13),8.31,6.32
C/C(CCC(=O)N[C@@H](CCCCNC(=O)CC/C(C)=N/OCCO[C@H]1O[C@H](CCP(=O)(O)O)[C@@H](O)[C@H](O)[C@@H]1O)C(=O)NCCCC[C@H](NC(=O)CNC(=O)[C@@H]1CSCC(=O)N[C@@H](Cc2ccccc2)C(=O)N[C@@H](C(C)C)C(=O)N2CCC[C@H]2C(=O)N[C@@H]([C@@H](C)O)C(=O)N[C@@H]([C@@H](C)O)C(=O)N[C@@H](Cc2ccc(-c3ccccc3)cc2)C(=O)N(C)[C@@H](C)C(=O)N[C@@H](Cc2ccc(-c3ccccc3)cc2)C(=O)N(C)[C@@H](C)C(=O)N[C@@H](CCC(=O)O)C(=O)N[C@@H](C)C(=O)N2CCC[C@H]2C(=O)N1)C(N)=O)=N/OCCO[C@H]1O[C@H](CCP(=O)(O)O)[C@@H](O)[C@H](O)[C@@H]1O [BFC-9] ({CH2CO}-FVPTT[Bip][NMeA][Bip][NMeA]EAPCGK(X3)-NH2; thioether N-13),8.13,6.77

# Source: patent US12605451B2, “Targeted plasma protein degradation” (Novartis AG, priority 2020, dated 2026)
